Sequences of proteins named here, by UniProt entry; tags and fusion partners are left off. A change or cut given only in a name is not applied to a line headed by its entry.
UniProt P06454: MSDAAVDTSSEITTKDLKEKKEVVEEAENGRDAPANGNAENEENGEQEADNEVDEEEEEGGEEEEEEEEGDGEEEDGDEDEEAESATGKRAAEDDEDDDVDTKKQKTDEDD

In patent US20110281802A1, “COMPOSITION FOR TREATMENT AND PREVENTION OF HAIR LOSS AND PREMATURE GRAYING OF HAIR” (Immudiagnostik AG, priority 2007, published 2011):

Tested on: human hair follicles
Experiment: Thymosin α1 ELISA, amount in human hair follicles (assay #5)

Substance: Thymosin alpha-1 (SDAAVDTSSEITTKDLKEKKEVVEEAEN; Thymosin alpha-1; UniProt P06454 2-29, looked up) [TA1, 28aa thymic peptide which modulates lymphocyte differentiation]
- TA1 concentration in hair follicle sample (ELISA) (Sample #5a, extrapolated data): 2.604 ng/mL
- TA1 concentration in hair follicle sample (ELISA) (Sample #5b): 5.003 ng/mL
- TA1 concentration in hair follicle sample (ELISA) (Sample #5c, extrapolated data): 0.493 ng/mL
